Publication PMC11989440
Results are given in words; binding and its absence hold for the method and conditions named. In cells and extracts the contact can be indirect. Binding can be weak; no strength is given.

By UniProt entry, the sequences of proteins in these tests, tags left out. Where a name states a change or a piece, a line headed by the entry shows the natural chain unless it says otherwise.
UniProt Q8N4S9: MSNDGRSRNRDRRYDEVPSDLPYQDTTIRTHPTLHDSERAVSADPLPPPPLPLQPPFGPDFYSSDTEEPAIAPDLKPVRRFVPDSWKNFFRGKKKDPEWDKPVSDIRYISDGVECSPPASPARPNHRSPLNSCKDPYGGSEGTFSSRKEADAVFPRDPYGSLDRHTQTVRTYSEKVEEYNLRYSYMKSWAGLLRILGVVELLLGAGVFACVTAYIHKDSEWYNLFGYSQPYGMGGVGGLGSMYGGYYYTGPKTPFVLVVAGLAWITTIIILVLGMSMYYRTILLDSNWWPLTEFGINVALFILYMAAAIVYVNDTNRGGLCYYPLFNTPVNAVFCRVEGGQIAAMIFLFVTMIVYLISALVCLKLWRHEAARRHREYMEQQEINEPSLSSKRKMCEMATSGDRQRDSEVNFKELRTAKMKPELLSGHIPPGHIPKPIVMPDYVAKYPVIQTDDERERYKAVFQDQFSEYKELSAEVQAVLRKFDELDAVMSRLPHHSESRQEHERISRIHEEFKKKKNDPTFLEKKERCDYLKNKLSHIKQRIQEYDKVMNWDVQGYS
UniProt Q07157: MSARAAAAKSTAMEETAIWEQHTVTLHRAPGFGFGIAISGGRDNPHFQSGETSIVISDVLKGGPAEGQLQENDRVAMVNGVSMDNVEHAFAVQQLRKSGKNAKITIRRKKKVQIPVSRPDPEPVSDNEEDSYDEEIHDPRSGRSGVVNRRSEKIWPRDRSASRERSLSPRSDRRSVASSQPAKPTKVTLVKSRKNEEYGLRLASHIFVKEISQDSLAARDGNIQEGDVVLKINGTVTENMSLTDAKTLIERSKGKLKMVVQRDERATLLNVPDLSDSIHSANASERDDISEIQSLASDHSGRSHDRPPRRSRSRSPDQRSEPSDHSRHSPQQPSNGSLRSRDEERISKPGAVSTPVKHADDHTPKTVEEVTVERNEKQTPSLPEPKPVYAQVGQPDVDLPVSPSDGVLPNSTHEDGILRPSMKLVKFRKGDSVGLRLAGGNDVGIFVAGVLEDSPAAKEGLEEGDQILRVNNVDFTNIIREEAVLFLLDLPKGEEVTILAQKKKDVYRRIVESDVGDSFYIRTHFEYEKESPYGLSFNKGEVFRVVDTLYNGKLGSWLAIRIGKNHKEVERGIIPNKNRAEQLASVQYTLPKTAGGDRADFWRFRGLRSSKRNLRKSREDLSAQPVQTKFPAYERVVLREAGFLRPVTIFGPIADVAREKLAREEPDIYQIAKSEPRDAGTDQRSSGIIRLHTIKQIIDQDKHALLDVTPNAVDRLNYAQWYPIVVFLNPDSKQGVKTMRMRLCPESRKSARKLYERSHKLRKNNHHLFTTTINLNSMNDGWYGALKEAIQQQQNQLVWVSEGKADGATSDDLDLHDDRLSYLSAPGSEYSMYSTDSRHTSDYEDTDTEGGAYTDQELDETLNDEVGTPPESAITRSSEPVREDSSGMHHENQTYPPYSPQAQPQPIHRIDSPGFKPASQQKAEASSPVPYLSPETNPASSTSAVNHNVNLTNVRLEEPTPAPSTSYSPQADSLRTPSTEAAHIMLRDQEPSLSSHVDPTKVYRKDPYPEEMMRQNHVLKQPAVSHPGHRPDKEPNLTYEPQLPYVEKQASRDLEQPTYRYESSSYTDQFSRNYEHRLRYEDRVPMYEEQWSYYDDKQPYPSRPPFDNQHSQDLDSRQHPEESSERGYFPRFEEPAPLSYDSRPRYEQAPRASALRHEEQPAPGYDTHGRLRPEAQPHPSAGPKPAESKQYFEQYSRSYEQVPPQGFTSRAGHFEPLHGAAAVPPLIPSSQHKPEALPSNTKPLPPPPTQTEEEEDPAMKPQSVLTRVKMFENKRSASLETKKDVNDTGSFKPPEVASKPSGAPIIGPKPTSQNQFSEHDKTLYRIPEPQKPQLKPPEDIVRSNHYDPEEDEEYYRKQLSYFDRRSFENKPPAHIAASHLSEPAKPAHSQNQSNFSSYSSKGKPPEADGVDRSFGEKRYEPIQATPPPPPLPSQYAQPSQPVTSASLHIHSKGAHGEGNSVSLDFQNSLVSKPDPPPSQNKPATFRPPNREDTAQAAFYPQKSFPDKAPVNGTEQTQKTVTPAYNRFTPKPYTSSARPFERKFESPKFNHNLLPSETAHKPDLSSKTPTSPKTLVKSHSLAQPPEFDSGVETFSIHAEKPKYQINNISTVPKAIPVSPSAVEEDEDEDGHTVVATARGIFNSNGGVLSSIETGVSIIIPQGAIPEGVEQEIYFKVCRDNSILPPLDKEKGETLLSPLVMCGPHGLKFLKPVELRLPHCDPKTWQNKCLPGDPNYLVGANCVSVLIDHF

Biological target: MARVELD2 p.(Val354Serfs*5) mutant, FLAG-tagged (human) (UniProt Q8N4S9)
Test: co-IP; lysates of HEK-293 cells 48 h after transfection with FLAG-MARVELD2 wild type or mutant; 100 ug protein; antibodies against ZO-1, FLAG or IgG control at 4 °C overnight, protein A agarose beads; SDS-PAGE and blot stained for ZO-1; lysis buffer with NaCl, 1% Triton X-100, 0.1% SDS, Tris pH 7.5, 1% deoxycholate

zonula occludens-1 (ZO-1) (from UniProt Q07157 1-1748)
binding: binds
